Reference: the supplement of paper PMC10849652
This is one part of the list.

Protein sequences, listed by entry. Tags and fused reporters are not part of them. Lines headed by an entry give the natural chain unless they say otherwise; changes in a name come on top.
UniProt Q8NG11: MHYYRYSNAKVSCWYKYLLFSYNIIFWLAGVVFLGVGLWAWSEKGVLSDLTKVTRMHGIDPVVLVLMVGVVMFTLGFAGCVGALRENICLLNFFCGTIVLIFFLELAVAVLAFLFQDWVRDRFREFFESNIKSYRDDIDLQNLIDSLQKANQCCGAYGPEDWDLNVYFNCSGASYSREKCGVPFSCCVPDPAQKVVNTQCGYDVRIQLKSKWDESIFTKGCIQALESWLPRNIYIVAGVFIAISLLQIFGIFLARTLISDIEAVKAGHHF
UniProt Q9Y385: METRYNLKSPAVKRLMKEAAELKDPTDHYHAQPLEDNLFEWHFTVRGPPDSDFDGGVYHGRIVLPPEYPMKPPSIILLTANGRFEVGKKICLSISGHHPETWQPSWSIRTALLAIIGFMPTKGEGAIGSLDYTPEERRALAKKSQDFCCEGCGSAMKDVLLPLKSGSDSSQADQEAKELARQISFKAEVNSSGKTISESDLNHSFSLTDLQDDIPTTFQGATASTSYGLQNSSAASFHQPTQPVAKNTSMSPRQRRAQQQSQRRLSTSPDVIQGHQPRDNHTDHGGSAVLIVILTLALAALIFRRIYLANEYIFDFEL
UniProt Q14157: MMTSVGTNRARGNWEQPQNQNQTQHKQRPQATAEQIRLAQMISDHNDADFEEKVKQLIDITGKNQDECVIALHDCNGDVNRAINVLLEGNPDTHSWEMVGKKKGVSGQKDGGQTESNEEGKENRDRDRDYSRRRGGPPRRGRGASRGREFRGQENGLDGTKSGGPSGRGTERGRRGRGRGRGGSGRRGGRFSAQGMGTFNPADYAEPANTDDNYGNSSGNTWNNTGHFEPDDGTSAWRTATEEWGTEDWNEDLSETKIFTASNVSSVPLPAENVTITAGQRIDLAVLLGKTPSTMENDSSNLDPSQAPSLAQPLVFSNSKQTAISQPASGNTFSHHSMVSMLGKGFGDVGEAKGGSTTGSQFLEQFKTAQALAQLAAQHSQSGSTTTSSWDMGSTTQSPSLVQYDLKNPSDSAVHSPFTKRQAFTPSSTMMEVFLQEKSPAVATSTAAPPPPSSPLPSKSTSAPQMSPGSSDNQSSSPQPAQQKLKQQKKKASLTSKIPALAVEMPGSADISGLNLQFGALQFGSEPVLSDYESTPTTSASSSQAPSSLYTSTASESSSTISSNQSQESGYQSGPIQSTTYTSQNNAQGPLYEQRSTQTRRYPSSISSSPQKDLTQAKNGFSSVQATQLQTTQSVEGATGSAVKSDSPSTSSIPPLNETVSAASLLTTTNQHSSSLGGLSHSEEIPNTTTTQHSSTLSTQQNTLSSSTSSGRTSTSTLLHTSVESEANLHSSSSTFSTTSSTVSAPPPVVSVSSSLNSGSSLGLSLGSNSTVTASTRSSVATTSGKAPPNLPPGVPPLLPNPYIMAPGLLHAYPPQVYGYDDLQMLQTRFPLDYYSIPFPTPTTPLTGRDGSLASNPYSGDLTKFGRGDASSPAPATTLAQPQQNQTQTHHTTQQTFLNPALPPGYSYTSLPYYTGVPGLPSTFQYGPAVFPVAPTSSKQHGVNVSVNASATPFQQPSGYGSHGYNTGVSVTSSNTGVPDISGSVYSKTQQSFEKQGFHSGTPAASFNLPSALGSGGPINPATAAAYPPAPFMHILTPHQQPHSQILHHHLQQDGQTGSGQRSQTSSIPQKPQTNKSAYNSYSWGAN
UniProt Q6NXR4: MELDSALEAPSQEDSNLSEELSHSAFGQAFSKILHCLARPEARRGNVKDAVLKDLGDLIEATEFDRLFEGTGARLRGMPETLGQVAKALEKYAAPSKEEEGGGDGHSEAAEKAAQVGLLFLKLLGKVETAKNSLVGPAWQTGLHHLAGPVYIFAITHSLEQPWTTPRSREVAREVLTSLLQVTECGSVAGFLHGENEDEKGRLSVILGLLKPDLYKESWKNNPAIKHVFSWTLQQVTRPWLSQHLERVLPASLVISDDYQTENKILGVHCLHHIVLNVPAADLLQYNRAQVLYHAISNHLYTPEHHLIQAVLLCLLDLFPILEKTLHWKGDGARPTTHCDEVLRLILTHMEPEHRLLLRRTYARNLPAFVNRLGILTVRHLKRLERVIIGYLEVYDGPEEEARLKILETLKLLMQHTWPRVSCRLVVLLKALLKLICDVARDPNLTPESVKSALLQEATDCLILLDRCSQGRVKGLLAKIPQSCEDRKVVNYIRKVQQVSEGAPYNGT
UniProt Q9NZ09: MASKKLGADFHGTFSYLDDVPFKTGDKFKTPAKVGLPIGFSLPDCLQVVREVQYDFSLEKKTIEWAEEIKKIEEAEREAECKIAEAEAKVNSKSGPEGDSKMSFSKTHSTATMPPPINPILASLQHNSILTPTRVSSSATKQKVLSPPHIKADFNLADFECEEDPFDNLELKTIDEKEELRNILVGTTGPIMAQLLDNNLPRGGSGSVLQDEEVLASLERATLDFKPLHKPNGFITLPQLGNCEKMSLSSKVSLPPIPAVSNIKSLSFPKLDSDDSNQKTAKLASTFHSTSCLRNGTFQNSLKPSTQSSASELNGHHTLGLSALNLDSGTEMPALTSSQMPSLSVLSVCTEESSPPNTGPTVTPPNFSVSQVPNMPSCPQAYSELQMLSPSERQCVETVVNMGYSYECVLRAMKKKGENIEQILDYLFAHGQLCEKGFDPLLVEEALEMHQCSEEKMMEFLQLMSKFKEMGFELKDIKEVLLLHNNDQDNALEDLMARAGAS
UniProt Q99816: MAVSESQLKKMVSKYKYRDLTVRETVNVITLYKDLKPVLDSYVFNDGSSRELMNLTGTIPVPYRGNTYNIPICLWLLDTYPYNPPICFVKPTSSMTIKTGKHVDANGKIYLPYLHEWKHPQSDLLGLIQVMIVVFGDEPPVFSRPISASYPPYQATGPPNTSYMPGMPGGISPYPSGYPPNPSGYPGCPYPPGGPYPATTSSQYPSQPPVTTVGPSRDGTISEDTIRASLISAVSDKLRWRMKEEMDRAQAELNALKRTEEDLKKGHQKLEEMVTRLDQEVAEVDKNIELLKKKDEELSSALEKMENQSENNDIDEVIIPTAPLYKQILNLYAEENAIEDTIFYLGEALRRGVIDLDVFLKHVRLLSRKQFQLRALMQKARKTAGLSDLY
UniProt Q9NV66: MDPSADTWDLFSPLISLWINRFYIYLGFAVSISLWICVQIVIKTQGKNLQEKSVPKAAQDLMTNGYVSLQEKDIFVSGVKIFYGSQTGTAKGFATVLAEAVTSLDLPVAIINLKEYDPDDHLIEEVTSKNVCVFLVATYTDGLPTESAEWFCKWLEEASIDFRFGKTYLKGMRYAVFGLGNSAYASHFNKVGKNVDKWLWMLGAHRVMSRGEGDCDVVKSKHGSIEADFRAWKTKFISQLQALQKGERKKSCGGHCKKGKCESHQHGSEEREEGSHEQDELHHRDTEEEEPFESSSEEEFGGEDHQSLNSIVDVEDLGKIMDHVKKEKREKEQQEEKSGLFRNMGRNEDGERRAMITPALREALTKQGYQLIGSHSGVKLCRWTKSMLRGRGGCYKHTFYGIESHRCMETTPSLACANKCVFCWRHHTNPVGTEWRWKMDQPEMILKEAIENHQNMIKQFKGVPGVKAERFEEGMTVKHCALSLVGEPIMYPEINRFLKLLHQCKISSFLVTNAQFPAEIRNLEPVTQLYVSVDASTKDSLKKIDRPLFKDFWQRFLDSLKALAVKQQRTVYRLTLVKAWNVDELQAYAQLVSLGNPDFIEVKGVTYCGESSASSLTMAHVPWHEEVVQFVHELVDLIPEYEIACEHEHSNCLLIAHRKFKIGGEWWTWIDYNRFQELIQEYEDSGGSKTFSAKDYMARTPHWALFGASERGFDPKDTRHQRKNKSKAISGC
UniProt Q99757: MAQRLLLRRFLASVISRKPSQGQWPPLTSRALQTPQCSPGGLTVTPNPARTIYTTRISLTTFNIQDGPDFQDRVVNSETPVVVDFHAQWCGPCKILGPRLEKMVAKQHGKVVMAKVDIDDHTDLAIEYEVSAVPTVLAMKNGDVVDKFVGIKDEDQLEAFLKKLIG
UniProt P22314: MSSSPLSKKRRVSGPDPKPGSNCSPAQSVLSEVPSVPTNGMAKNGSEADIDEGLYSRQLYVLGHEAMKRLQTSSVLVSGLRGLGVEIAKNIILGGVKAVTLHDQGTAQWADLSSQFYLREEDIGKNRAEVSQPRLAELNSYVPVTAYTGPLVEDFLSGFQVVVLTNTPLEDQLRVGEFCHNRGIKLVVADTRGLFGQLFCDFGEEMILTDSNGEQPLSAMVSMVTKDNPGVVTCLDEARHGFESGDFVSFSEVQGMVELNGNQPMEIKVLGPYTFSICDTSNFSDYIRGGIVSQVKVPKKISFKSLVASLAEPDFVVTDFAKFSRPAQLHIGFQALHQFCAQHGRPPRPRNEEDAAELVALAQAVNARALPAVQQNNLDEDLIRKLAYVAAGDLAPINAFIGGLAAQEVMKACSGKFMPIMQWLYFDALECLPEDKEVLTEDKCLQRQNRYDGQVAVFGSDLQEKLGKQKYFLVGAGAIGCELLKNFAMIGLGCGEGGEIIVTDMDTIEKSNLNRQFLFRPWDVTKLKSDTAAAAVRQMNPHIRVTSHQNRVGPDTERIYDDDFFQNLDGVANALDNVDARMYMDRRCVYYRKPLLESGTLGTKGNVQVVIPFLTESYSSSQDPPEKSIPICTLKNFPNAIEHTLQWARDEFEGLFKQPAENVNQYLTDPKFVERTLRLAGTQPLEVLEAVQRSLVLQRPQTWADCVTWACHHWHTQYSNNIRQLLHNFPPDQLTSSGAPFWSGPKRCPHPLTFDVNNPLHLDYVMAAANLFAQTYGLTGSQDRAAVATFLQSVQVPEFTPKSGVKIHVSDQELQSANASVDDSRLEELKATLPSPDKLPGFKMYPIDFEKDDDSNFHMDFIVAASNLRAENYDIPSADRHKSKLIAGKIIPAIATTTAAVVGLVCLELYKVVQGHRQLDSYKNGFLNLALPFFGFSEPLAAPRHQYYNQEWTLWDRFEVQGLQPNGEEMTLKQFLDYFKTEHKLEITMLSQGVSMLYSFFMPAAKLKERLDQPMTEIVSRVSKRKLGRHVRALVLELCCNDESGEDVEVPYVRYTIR
UniProt Q13509, whole entry, looked up: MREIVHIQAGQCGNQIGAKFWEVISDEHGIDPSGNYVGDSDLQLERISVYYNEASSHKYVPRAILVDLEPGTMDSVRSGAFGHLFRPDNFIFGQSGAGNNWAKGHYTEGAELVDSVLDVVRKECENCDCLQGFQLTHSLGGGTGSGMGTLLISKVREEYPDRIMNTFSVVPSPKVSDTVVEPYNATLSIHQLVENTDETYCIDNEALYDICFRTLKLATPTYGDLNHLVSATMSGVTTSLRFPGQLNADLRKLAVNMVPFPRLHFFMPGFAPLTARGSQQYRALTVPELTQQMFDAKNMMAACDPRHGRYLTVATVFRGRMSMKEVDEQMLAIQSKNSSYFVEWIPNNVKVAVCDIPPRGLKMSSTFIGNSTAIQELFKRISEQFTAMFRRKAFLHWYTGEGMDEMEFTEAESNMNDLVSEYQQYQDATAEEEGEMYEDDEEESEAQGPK
UniProt P43897: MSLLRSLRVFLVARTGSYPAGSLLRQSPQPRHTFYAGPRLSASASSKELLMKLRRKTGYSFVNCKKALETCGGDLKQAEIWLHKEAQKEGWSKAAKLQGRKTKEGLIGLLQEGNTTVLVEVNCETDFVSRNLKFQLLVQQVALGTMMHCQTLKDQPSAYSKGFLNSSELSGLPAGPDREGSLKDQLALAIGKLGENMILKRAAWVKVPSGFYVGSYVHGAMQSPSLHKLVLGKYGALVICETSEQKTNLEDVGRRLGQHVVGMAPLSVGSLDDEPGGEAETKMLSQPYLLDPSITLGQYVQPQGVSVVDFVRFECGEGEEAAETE
UniProt P26368, whole entry, looked up: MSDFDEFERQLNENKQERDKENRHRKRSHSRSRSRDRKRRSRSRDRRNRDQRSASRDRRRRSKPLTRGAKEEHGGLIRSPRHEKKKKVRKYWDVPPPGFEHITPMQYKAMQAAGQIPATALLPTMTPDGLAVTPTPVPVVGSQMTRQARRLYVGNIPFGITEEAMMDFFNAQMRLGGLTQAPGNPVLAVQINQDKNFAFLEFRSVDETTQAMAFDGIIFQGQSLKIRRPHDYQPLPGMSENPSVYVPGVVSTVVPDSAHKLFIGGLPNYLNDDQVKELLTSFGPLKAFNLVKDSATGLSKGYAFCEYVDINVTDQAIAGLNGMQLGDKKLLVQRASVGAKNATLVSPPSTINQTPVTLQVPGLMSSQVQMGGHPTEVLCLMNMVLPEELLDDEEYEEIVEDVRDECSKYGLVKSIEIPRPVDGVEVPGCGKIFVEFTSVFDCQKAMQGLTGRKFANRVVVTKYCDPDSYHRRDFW
UniProt Q969E8: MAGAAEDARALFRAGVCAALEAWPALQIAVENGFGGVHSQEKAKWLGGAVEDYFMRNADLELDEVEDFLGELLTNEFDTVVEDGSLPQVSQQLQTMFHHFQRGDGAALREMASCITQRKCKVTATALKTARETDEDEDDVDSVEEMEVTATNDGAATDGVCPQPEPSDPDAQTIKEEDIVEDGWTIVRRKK

What follows are targets tested with CC(C)(C)Cn1c(N)nc2ccc(-c3[nH]c(C(C)(C)C)nc3-c3ccc(F)cc3)nc21 [ralimetinib] (assay: log2 fold change, soluble protein after heating vs DMSO (PISA); higher = thermal stabilisation; K562 cells, 10 uM, 30 min; active = over 0.2 and 3.5 SD of the protein, either way, in both replicates (recomputed)).
Method in brief: (§1)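 K562 cells at 2×10^6 cells/mL were treated with 10 μM compound for 30 min. Aliquots were heated for 3 min across 48°C-58°C, pooled, and extracted in PBS with 0.5% NP-40 at 4°C; soluble protein was the supernatant after 21,000xg for 90 min. Soluble protein was quantified by TMTpro 16plex LC-MS/MS with channel sums equalised, and reported as log2 fold change in thermal stability against DMSO controls, with values from duplicates.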
In the case of TSPAN14 (UniProt Q8NG11), the log2 fold change is reported as inactive: -0.117.
For UBE2J1 (UniProt Q9Y385), the log2 fold change was inactive: -0.02.
For UBE2H (UniProt P62256), the log2 fold change was inactive: -0.1.
TUBA1C (UniProt Q9BQE3) was tested, and the log2 fold change was inactive: -0.003.
With UBE2I (UniProt P63279) the log2 fold change was inactive: -0.062.
UBAP2L isoform 1 (UniProt Q14157) was tested, and the log2 fold change was inactive: -0.025.
TTPAL (UniProt Q9BTX7) was tested, and the log2 fold change was inactive: -0.102.
TXNRD1 (UniProt Q16881) was tested, and the log2 fold change was inactive: -0.088.
With TXNL1 (UniProt O43396) the log2 fold change was inactive: -0.003.
For TTC27 (UniProt Q6P3X3), the log2 fold change was inactive: 0.192.
TTI2 (UniProt Q6NXR4) was tested, and the log2 fold change was inactive: 0.033.
With UAP1L1 (UniProt Q3KQV9) the log2 fold change was inactive: -0.083.
With TXNIP (UniProt Q9H3M7) the log2 fold change was inactive: 0.13.
In the case of UBAP1 isoform 4 (UniProt Q9NZ09), the log2 fold change is reported as inactive: -0.024.
For UBAP2L isoform 5 (UniProt Q14157), the log2 fold change was inactive: -0.007.
For TSG101 (UniProt Q99816), the log2 fold change was inactive: -0.005.
With TUBA1B (UniProt P68363) the log2 fold change was inactive: -0.016.
In the case of UBA52 (UniProt P62987), the log2 fold change is reported as inactive: 0.139.
For UBE2G1 (UniProt P62253), the log2 fold change was inactive: -0.062.
In the case of TYW1 (UniProt Q9NV66), the log2 fold change is reported as inactive: 0.044.
TXN2 (UniProt Q99757) was tested, and the log2 fold change was inactive: -0.093.
For UBA1 (UniProt P22314), the log2 fold change was inactive: 0.068.
With UBA6 the log2 fold change was inactive: -0.002.
In the case of TUBB3 (UniProt Q13509), the log2 fold change is reported as inactive: 0.004.
In the case of TSFM (UniProt P43897), the log2 fold change is reported as inactive: 0.011.
TWF2 (UniProt Q6IBS0) was tested, and the log2 fold change was inactive: -0.015.
With TXLNG (UniProt Q9NUQ3) the log2 fold change was inactive: -0.008.
TTMP isoform 3 (UniProt Q5BVD1) was tested, and the log2 fold change was inactive: 0.182.
In the case of TTN isoform 12 (UniProt Q8WZ42), the log2 fold change is reported as inactive: -0.124.
For U2AF2 (UniProt P26368), the log2 fold change was inactive: 0.03.
For TSR2 (UniProt Q969E8), the log2 fold change was inactive: 0.056.
For TUFM (UniProt P49411), the log2 fold change was inactive: -0.052.

The targets below were run with CC(C)(O)CC(=O)NCCn1ccc2ncnc(Nc3ccc(Oc4cccc(C(F)(F)F)c4)c(Cl)c3)c21 in the same assay as above.
Method in brief: as §1
TSPAN14 (UniProt Q8NG11) was tested, and the log2 fold change was inactive: -0.037.
UBE2J1 (UniProt Q9Y385) was tested, and the log2 fold change was inactive: -0.106.
UBE2H (UniProt P62256) was tested, and the log2 fold change was inactive: -0.044.
In the case of TUBA1C (UniProt Q9BQE3), the log2 fold change is reported as inactive: -0.024.
For UBE2I (UniProt P63279), the log2 fold change was inactive: -0.042.
For UBAP2L isoform 1 (UniProt Q14157), the log2 fold change was inactive: 0.016.
In the case of TTPAL (UniProt Q9BTX7), the log2 fold change is reported as inactive: 0.005.
In the case of TXNRD1 (UniProt Q16881), the log2 fold change is reported as inactive: -0.049.
In the case of TXNL1 (UniProt O43396), the log2 fold change is reported as inactive: -0.03.
TTC27 (UniProt Q6P3X3) was tested, and the log2 fold change was inactive: -0.02.
In the case of TTI2 (UniProt Q6NXR4), the log2 fold change is reported as inactive: -0.196.
In the case of UAP1L1 (UniProt Q3KQV9), the log2 fold change is reported as inactive: -0.032.
TXNIP (UniProt Q9H3M7) was tested, and the log2 fold change was inactive: 0.072.
UBAP1 isoform 4 (UniProt Q9NZ09) was tested, and the log2 fold change was inactive: -0.044.
In the case of UBAP2L isoform 5 (UniProt Q14157), the log2 fold change is reported as inactive: 0.003.
In the case of TSG101 (UniProt Q99816), the log2 fold change is reported as inactive: -0.025.
With TUBA1B (UniProt P68363) the log2 fold change was inactive: -0.095.
With UBA52 (UniProt P62987) the log2 fold change was inactive: 0.107.
In the case of UBE2G1 (UniProt P62253), the log2 fold change is reported as inactive: 0.
TYW1 (UniProt Q9NV66) was tested, and the log2 fold change was inactive: 0.
In the case of TXN2 (UniProt Q99757), the log2 fold change is reported as inactive: 0.079.
UBA1 (UniProt P22314) was tested, and the log2 fold change was inactive: -0.15.
With UBA6 the log2 fold change was inactive: -0.012.
TUBB3 (UniProt Q13509) was tested, and the log2 fold change was inactive: -0.021.
With TSFM (UniProt P43897) the log2 fold change was inactive: -0.254.
TWF2 (UniProt Q6IBS0) was tested, and the log2 fold change was inactive: -0.042.
In the case of TXLNG (UniProt Q9NUQ3), the log2 fold change is reported as inactive: -0.001.
With TTMP isoform 3 (UniProt Q5BVD1) the log2 fold change was inactive: -0.077.
With TTN isoform 12 (UniProt Q8WZ42) the log2 fold change was inactive: -0.088.
U2AF2 (UniProt P26368) was tested, and the log2 fold change was inactive: -0.011.
For TSR2 (UniProt Q969E8), the log2 fold change was inactive: 0.025.
TUFM (UniProt P49411) was tested, and the log2 fold change was inactive: -0.139.

What follows are targets tested with CC(C)C1=C2N=C(C=C(N2N=C1)NCC3=CC=CC=C3)NCCCCCCN in the same assay as above.
Method in brief: as §1
For TSPAN14 (UniProt Q8NG11), the log2 fold change was inactive: 0.01.
With UBE2J1 (UniProt Q9Y385) the log2 fold change was inactive: -0.284.
In the case of UBE2H (UniProt P62256), the log2 fold change is reported as inactive: -0.032.
In the case of TUBA1C (UniProt Q9BQE3), the log2 fold change is reported as inactive: 0.038.
In the case of UBE2I (UniProt P63279), the log2 fold change is reported as inactive: -0.009.
With UBAP2L isoform 1 (UniProt Q14157) the log2 fold change was inactive: 0.103.
With TTPAL (UniProt Q9BTX7) the log2 fold change was inactive: 0.031.
For TXNRD1 (UniProt Q16881), the log2 fold change was inactive: -0.013.
For TXNL1 (UniProt O43396), the log2 fold change was inactive: -0.052.
In the case of TTC27 (UniProt Q6P3X3), the log2 fold change is reported as inactive: -0.327.
For TTI2 (UniProt Q6NXR4), the log2 fold change was inactive: -0.079.
For UAP1L1 (UniProt Q3KQV9), the log2 fold change was inactive: -0.002.
In the case of TXNIP (UniProt Q9H3M7), the log2 fold change is reported as inactive: -0.371.
UBAP1 isoform 4 (UniProt Q9NZ09) was tested, and the log2 fold change was inactive: -0.087.
For UBAP2L isoform 5 (UniProt Q14157), the log2 fold change was inactive: 0.053.
In the case of TSG101 (UniProt Q99816), the log2 fold change is reported as inactive: -0.146.
In the case of TUBA1B (UniProt P68363), the log2 fold change is reported as inactive: 0.012.
UBA52 (UniProt P62987) was tested, and the log2 fold change was inactive: 0.044.
In the case of UBE2G1 (UniProt P62253), the log2 fold change is reported as inactive: -0.081.
In the case of TYW1 (UniProt Q9NV66), the log2 fold change is reported as inactive: 0.03.
In the case of TXN2 (UniProt Q99757), the log2 fold change is reported as inactive: 0.086.
UBA1 (UniProt P22314) was tested, and the log2 fold change was active: -0.363.
With UBA6 the log2 fold change was inactive: -0.044.
TUBB3 (UniProt Q13509) was tested, and the log2 fold change was inactive: -0.006.
With TSFM (UniProt P43897) the log2 fold change was inactive: 0.069.
TWF2 (UniProt Q6IBS0) was tested, and the log2 fold change was inactive: 0.019.
For TXLNG (UniProt Q9NUQ3), the log2 fold change was inactive: 0.035.
In the case of TTMP isoform 3 (UniProt Q5BVD1), the log2 fold change is reported as inactive: 0.083.
TTN isoform 12 (UniProt Q8WZ42) was tested, and the log2 fold change was inactive: 0.074.
In the case of U2AF2 (UniProt P26368), the log2 fold change is reported as inactive: -0.102.
In the case of TSR2 (UniProt Q969E8), the log2 fold change is reported as inactive: -0.045.
TUFM (UniProt P49411) was tested, and the log2 fold change was inactive: -0.046.
